Test results from the supplement of paper PMC10373366.
Counter-ions that a name gives are not always drawn. The list shows a part of the results. Single values are uncertain, as repeats are few or missing.

What was measured:
A2780 = test: cell growth inhibition ratio vs untreated control (CCK8); higher = stronger inhibition of cell viability; conditions: 10 µM; 48 h
Procedure: (§1)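 Natural product library (Topscience) screened at 10 µM final concentration for 48 h on ovarian cancer A2780 cells and patient-derived ovarian cancer cells (PDC) in 96-well plates; viability read by CCK8 and reported as inhibition ratio (%) relative to untreated control. Single-dose primary screen.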

[1] = system: patient-derived ovarian cancer cells (PDC); test: as above; conditions: 10 µM; 48 h
Procedure: as §1

Row | Compound | cell growth inhibition ratio (A2780) [%] | cell growth inhibition ratio [1] [%]
1 | O=C(O)/C=C/CCCCCCCO [10-Hydroxy-2-decenoic acid] | 16.3 | 5.06
2 | COC(=O)c1ccccc1O [Methyl salicylate] | 10.8 | 4.69
3 | Cc1coc2c1C(=O)C(=O)c1c-2ccc2c(C)cccc12 [Tanshinone I] | 86.1 | 7.2
4 | C=C(C)[C@@H]1CC[C@]2(C(=O)O[C@@H]3O[C@H](CO[C@@H]4O[C@H](CO)[C@@H](O[C@@H]5O[C@@H](C)[C@H](O)[C@@H](O)[C@H]5O)[C@H](O)[C@H]4O)[C@@H](O)[C@H](O)[C@H]3O)CC[C@]3(C)[C@H](CC[C@@H]4[C@@]5(C)CC[C@H](O[C@@H]6OC[C@H](O)[C@H](O)[C@H]6O[C@@H]6O[C@@H](C)[C@H](O)[C@@H](O)[C@H]6O)[C@@](C)(CO)[C@@H]5CC[C@]43C)[C@@H]12 [Anemoside B4] | 11.6 | -22.3
5 | CCNC(=O)CC[C@H](N)C(=O)O [L-Theanine] | 8.82 | -6.08
6 | CC[C@@]1(O)C(=O)OCc2c1cc1n(c2=O)Cc2cc3cc(O)ccc3nc2-1 [10-Hydroxycamptothecin] | 86.6 | 76.7
7 | O=c1c(-c2ccc(O)cc2)coc2cc(O[C@@H]3O[C@H](CO)[C@@H](O)[C@H](O)[C@H]3O)ccc12 [Daidzin] | 14.2 | 2.16
8 | CC1(C)CC[C@]2(C(=O)O)CC[C@]3(C)C(=CC[C@@H]4[C@@]5(C)CCC(=O)C(C)(C)[C@@H]5CC[C@]43C)[C@@H]2C1 [Oleanonic Acid] | 37.9 | 8.71
9 | NCCc1c[nH]cn1 [Histamine] | 25 | -1.21
10 | CC(C)=CCC[C@](C)(O[C@@H]1O[C@H](CO)[C@@H](O)[C@H](O)[C@H]1O)[C@H]1CC[C@]2(C)[C@@H]1[C@H](O)C[C@@H]1[C@@]3(C)CC[C@H](O[C@@H]4O[C@H](CO)[C@@H](O)[C@H](O)[C@H]4O)C(C)(C)[C@@H]3CC[C@]12C [Ginsenoside F2] | 12.6 | -13.2
11 | COC(=O)Nc1nc2cc(C(=O)c3cccs3)ccc2[nH]1 [Nocodazole] | 84.8 | 45.9
12 | C=C1CCC[C@]2(C)C[C@]3(O)OC(=O)C(C)=C3C[C@@H]12 [Atractylenolide III] | -0.761 | -9.32
13 | CC12CCC(CC1=O)C2(C)C [D-Camphor] | 2.93 | 2.19
14 | O=C(O)CCCCC1CCSS1 (centres undefined) [Alphalipoic acid] | 1.45 | 6.9
15 | CC12CCC(CC1=O)C2(C)C (centres undefined) [Camphor] | -12.2 | 3.82
16 | O=c1oc2c(O)c(O)cc3c(=O)oc4c(O)c(O)cc1c4c23 [Ellagic acid] | 12.3 | -8.7
17 | N[C@@H](CCC(=O)N[C@@H](CS)C(=O)NCC(=O)O)C(=O)O [Glutathione] | 5.75 | 9.47
18 | C[C@]12CCC(=O)C=C1CC[C@@H]1[C@@H]2C(=O)C[C@@]2(C)[C@H]1CC[C@]2(O)C(=O)CO [Cortisone] | 1.96 | -12.3
19 | CC[C@H](CC[C@@H](C)[C@H]1CC[C@H]2[C@@H]3CC=C4C[C@@H](O[C@@H]5O[C@H](CO)[C@@H](O)[C@H](O)[C@H]5O)CC[C@]4(C)[C@H]3CC[C@]12C)C(C)C [Eleutheroside A] | 15.3 | 14.4
20 | COc1cc(CCC(=O)CC(=O)CCc2ccc(O)c(OC)c2)ccc1O [Tetrahydro Curcumin] | 16.5 | -2.35
21 | COc1cc2ccc(=O)oc2cc1O[C@@H]1O[C@H](CO)[C@@H](O)[C@H](O)[C@H]1O [scopolin] | 18 | 4.22
22 | CC(C)=CCc1c(O)ccc(C(=O)/C=C/c2ccc(O)cc2)c1O [Isobacachalcone] | -13.8 | 6.16
23 | O=c1c(O[C@@H]2O[C@H](CO)[C@@H](O)[C@H](O)[C@H]2O)c(-c2cc(O)c(O[C@@H]3O[C@H](CO)[C@@H](O)[C@H](O)[C@H]3O)c(O)c2)oc2cc(O)cc(O)c12 [Complanatoside A] | -37.7 | 2.67
24 | COc1cc(CCC(C)=O)ccc1O [Vanillylacetone] | 13 | 8.43

3 entries from above, with tabs:
Row	Compound	cell growth inhibition ratio (A2780) [%]	cell growth inhibition ratio [1] [%]
16	O=c1oc2c(O)c(O)cc3c(=O)oc4c(O)c(O)cc1c4c23 [Ellagic acid]	12.3	-8.7
17	N[C@@H](CCC(=O)N[C@@H](CS)C(=O)NCC(=O)O)C(=O)O [Glutathione]	5.75	9.47
18	C[C@]12CCC(=O)C=C1CC[C@@H]1[C@@H]2C(=O)C[C@@]2(C)[C@H]1CC[C@]2(O)C(=O)CO [Cortisone]	1.96	-12.3

Continuation.

Row | Compound | cell growth inhibition ratio (A2780) [%] | cell growth inhibition ratio [1] [%]
25 | C[C@H](CCC(=O)O)[C@H]1CC[C@H]2[C@@H]3C(=O)C[C@@H]4CC(=O)CC[C@]4(C)[C@H]3CC(=O)[C@]12C [Dehydrocholic acid] | 10 | -7.82
26 | CC1OC(OC2C(OC3CC4(C)C(CC(O)C5C(C6(C)CCC(C(C)(C)O)O6)CCC54C)C4(C)CCC(O)C(C)(C)C34)OC(CO)C(O)C2O)C(O)C(O)C1O (centres undefined) [Pseudoginsenoside F11] | 22.1 | 4.95
27 | O=c1cc(-c2ccc(O)cc2)oc2cc(O)cc(O)c12 [Apigenin] | 20.9 | -8.32
28 | O=C1O[C@H]([C@@H](O)CO)C(O)=C1OP(=O)(O)O [Sodium L-ascorbyl-2-phosphate] | -2.17 | 5.87
29 | COC(=O)C1=CC[C@@]23CC[C@@H]([C@@](C)(/C=C/C=C(\C)C(=O)O)OC2=O)[C@@]3(OC(C)=O)CC1 [Pseudolaric Acid B] | 82.8 | 40.8
30 | CC1(C)C(O[C@@H]2OC[C@@H](O)[C@H](O)[C@H]2O)CC[C@]23CC24CC[C@]2(C)[C@@H]([C@@]5(C)CC[C@@H](C(C)(C)O)O5)[C@H](O)C[C@@]2(C)C4C[C@@H](O[C@@H]2O[C@H](CO)[C@@H](O)[C@H](O)[C@H]2O)C13 (some centres undefined) [Astragaloside IV] | 8.4 | 5.58
31 | CC1(C)[C@@H](O[C@H]2O[C@H](C(=O)O)[C@@H](O)[C@H](O)[C@H]2O[C@@H]2O[C@H](C(=O)O)[C@@H](O)[C@H](O)[C@H]2O)CC[C@]2(C)[C@H]3C(=O)C=C4[C@@H]5C[C@@](C)(C(=O)O)CC[C@]5(C)CC[C@@]4(C)[C@]3(C)CC[C@@H]12 [Glycyrrhizin (Glycyrrhizic Acid)] | 0.558 | 4.31
32 | O=c1cc(-c2ccccc2)oc2cc(O)c(O)c(O)c12 [Baicalein] | 41 | -3.96
33 | C/C1=C2N=C(/C=C3N=C(/C(C)=C4\[N-]C(C(CC(N)=O)C4(C)CCC(=O)NCC(C)OP(=O)([O-])OC4C(CO)OC(n5cnc6cc(C)c(C)cc65)C4O)C4(C)N=C1C(CCC(N)=O)C4(C)CC(N)=O)C(CCC(N)=O)C\3(C)C)C(CCC(N)=O)C/2(C)CC(N)=O.[CH3-].[Co+3] (centres undefined) [Methylcobalamin] | 8.44 | 11.6
34 | C[n+]1cccc(C(=O)[O-])c1 [Trigonelline] | 12.9 | 9.98
35 | C/C(=C\CO)CCC[C@H](C)CCC[C@H](C)CCCC(C)C | 14.5 | 10.2
36 | Oc1ccc(CC2NCCc3cc(O)c(O)cc32)cc1 (centres undefined) [Higenamine Hydrochloride] | 7.82 | 4.38
37 | C[C@@H]1CC[C@]2(C(=O)O[C@@H]3O[C@H](CO)[C@@H](O)[C@H](O)[C@H]3O)CC[C@]3(C)C(=CC[C@@H]4[C@@]5(C)CC[C@H](O[C@@H]6OC[C@H](O)[C@H](O)[C@H]6O)C(C)(C)[C@@H]5CC[C@]43C)[C@@H]2[C@]1(C)O | 11.7 | -17.3
38 | OC[C@H]1O[C@@H](OCCc2ccc(O)cc2)[C@H](O)[C@@H](O)[C@@H]1O [Salidroside] | 4.97 | -7.59
39 | CC(C)=CCC[C@](C)(O[C@@H]1O[C@H](CO)[C@@H](O)[C@H](O)[C@H]1O)[C@H]1CC[C@]2(C)[C@@H]1[C@H](O)C[C@@H]1[C@@]3(C)CC[C@H](O)C(C)(C)[C@@H]3CC[C@]12C [(20S)-20-(β-D-Glucopyranosyloxy)dammara-24-ene-3β,12β-diol] | 1.97 | 6.4
40 | OC[C@H]1O[C@@](CO)(O[C@H]2O[C@H](CO)[C@@H](O)[C@H](O)[C@H]2O)[C@@H](O[C@H]2O[C@H](CO)[C@@H](O)[C@H](O)[C@H]2O)[C@@H]1O [Melezitose] | 9.22 | -21.4
41 | OC[C@@H](O)[C@@H](O)CO [Erythritol] | 1.8 | 8.06
42 | CC(=O)[C@H]1CC[C@H]2[C@@H]3CCC4=CC(=O)CC[C@]4(C)[C@H]3CC[C@]12C [Progesterone] | 34.2 | 23.5
43 | CC(C)=CCC[C@](C)(O)[C@H]1CC[C@]2(C)[C@@H]1[C@H](O)C[C@@H]1[C@@]3(C)CC[C@H](O[C@@H]4O[C@H](CO)[C@@H](O)[C@H](O)[C@H]4O[C@@H]4O[C@H](CO)[C@@H](O)[C@H](O)[C@H]4O)C(C)(C)[C@@H]3CC[C@]12C [Ginsenoside Rg3] | 19.8 | -0.41
44 | C[C@@H]1O[C@@H](O[C@H]2[C@H](O[C@H]3CC[C@@]4(C)[C@@H](CC[C@]5(C)[C@@H]4CC=C4[C@@H]6CC(C)(C)CC[C@]6(C(=O)O[C@@H]6O[C@H](CO[C@@H]7O[C@H](CO)[C@@H](O)[C@H](O)[C@H]7O)[C@@H](O)[C@H](O)[C@H]6O)CC[C@]45C)[C@]3(C)CO)OC[C@H](O)[C@@H]2O)[C@H](O)[C@H](O[C@@H]2O[C@H](CO)[C@@H](O)[C@H](O)[C@H]2O)[C@H]1O [macranthoidin A] | 5.34 | 14.5
45 | CC[C@H]1OC(=O)[C@H](C)[C@@H](O[C@H]2C[C@@](C)(OC)[C@@H](O)[C@H](C)O2)[C@H](C)[C@@H](O[C@@H]2O[C@H](C)C[C@H](N(C)C)[C@H]2O)[C@](C)(O)C[C@@H](C)CN(C)[C@H](C)[C@@H](O)[C@]1(C)O [Azithromycin dihydrate] | 4.7 | -45.9
46 | COc1cc(O)c(C(C)=O)c(OC)c1 [Xanthoxyline] | -7.77 | -11.2
47 | C[C@]12CCC(=O)C=C1CC[C@@H]1[C@@H]2[C@@H](O)C[C@@]2(C)[C@H]1CC[C@]2(O)C(=O)CO [Hydrocortisone] | 9.42 | -5.36
